{"source": "patent US6379965B1", "about": "“Multifunctional complexes for gene transfer into cells comprising a nucleic acid bound to a polyamine and having an endosome disruption agent” (American Home Products Corporation, priority 1994, dated 2002)", "test_system": "Human hepatocellular carcinoma HuH7 cells", "assay": "Transfection of adherent HuH7 cells in culture with pCMVβ plasmid, β-galactosidase activity", "format": "cell-based", "settings": "HuH7 in 6 well plates, treated similarly with the same two-component mixture and pCMVβ plasmid", "protocol": "Human hepatocellular carcinoma HuH7 cells were grown and seeded into a 96 well plate with 1-2×10^4 cells in 100 μL of minimal essential media α, modification with 10% serum. The plates were incubated in a 37° CO2 incubator until the cells were 60-80% confluent (approximately 24 hrs). The media was removed and the cells washed once with Optimem® (serum free media). Optimem® (100 μL) containing 0.5 μg of pCMVβ plasmid (from Clonetech, No. 6177-1), 0.5 μg of N^4-(5-[N^2,N^6-bis(β-3′-propionyl galactosyl-β1-4-thioglucoside)lysyl-N^6-(β-3′-propionyl galactosyl-β1-4-thioglucoside)lysyl]aminopentyl)-spermidine and 2.5 μg of N^4-(5-cholestene-3′β-oxycarbonyl)-aminopentyl)spermidine was added to the cells. The cells were incubated with the mixture for 4 hrs in a 37° CO2 incubator; thereafter 100 μL of media containing 20% serum was added and the incubation continued for an additional 20 hrs. Cells lysed with 0.5% NP-40 in 140 mM NaCl, 10 mM tris, 1.5 mM MgCl2 were assayed for β-galactosidase activity using o-nitrophenyl β-D-galactopyranoside, and gave A405=1.35 after 30 min. Cells grown in 6 well plates (25 mm diameter) and treated similarly were fixed with 2% paraformaldehyde and assayed for β-galactosidase activity using 5-bromo-4-chloro-3-indolyl β-D-galactopyranoside (J. Sambrook, et al., Molecular Cloning: A Laboratory Manual, Cold Spring Harbor, 1989).", "note": "Some of these results come from one statement about several compounds together. At least one structure is not confirmed: it was looked up by name or label, or the drawing left a doubt.", "data": [{"smiles": "CC(C)CCC[C@@H](C)[C@H]1CC[C@H]2[C@@H]3CC=C4C[C@@H](OC(=O)NCCCCCN(CCCN)CCCCN)CC[C@]4(C)[C@H]3CC[C@]12C.Cl", "note": "[N^4-(5-cholestene-3′β-oxycarbonyl)aminopentyl spermidine hydrochloride Salt]", "values": [{"measurement": "cells transfected (5-bromo-4-chloro-3-indolyl β-D-galactopyranoside, light microscopy)", "value": "5-10%"}]}]}
